In the series the target is T1, RFP-flag-FUS P525L (UniProt P35637).
T1 sequence (looked up, limits assumed): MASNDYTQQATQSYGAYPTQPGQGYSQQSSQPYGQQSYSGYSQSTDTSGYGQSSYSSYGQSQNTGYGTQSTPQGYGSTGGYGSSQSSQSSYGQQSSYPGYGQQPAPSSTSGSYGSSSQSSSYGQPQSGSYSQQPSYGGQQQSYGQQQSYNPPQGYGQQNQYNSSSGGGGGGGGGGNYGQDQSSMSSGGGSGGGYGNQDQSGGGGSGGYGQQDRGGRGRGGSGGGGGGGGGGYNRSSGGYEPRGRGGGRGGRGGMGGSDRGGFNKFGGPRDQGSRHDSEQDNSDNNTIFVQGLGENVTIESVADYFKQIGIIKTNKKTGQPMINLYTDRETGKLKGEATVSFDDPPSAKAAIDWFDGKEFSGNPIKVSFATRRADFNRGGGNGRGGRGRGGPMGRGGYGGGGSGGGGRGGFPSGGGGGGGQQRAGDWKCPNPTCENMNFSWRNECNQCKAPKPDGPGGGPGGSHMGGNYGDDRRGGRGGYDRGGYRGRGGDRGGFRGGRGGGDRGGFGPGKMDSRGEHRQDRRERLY
As to the kind of experiment: pull-down. As to conditions: 30 ng FUS with HeLa cytoplasmic extract; Biotin-16-UTP; recombinant protein; protein details: RFP-flag; label: biotin; probe letters rebuilt from the primers and the genome.

For at least one entry, the source does not settle the construct or the ends of the probe. Where a protein sequence is shown, tags need not be part of it.

On to “GGGUGGGCUAUAAACAGAUGAUCUUCAUAUCUUUUCAUAGCAUGUAAUAAUAAUUAAAAAACAAUUAUUAAUUACUAGGGGAAAGGAGUGUUCGUUCUACCCAGGGUACCACAGUUCCCCACAGUCAAAACCCAAAAGCAAGGAGAUGAGUUGAAAGACAGUUUUUCUUUAAGUCAUCAGUAUGGGAUGUCAGCAGAACAAAAAUUAAAAAGAUUAAUUUUCCUUUUGAUCUAAAACUUCCUUAGUUUGAGCAGUAGGUGCUACAAAAUUAUUUACAUAUCUUAGUAUCAUAGUUAAAUGUAAUGUGUUUAGGAGAGGAAAACAAAAGAUACAUUUGCUUUAAAUUCAUUAAGAAAUUUUCAAAUUCACUUUGUAGCCCAUGCUGAUAGAAUUGGGCUGUGUUGGUACAUUUGAAACACUGUUUAUGUUGCUUGAAACACUUAUUUAUUUAAUCGCCGAUGUGAUGAUGCCUAUGGCCGAGAUCAAAUAUAGCUAGAUUGGCUAGACUACUUAUUUGUUUACUUAAACUAUGGGAAGAAGCAUAUUAUUGUGUCAUUCUGUUGUGUGUGUAUGUGUAUAUACAAUAUAAAUAUAUAUAUAUAAAGUUAUUUUUUCUUUGGGUUAAUUUAUUAUAAGUUGUAACACUUGGCUAGUUUUGUUUGUAUAUGUCUUAAAAUGUUUUCUUAUGAUAUUUAAGUGACAGUUAAAGAGGUAUCAAGGUAACUUGUGUAGAACUAUUCUUUGAUAUAUUGUCAUGUUUGUUGUG [HuD 3'UTR F2]”, for which the binding result is “binds”. Regarding “GGGGCAUUGAAUGUUCUUUCAUAGCUGUCGUUGUUGAAUAUAAUAUACAUAGAUAGCGAUGUGCAGGGAUUUUUACCCAGCCAGCUAACUUUACUACCUUCCUUGAAGGUGGAUCUUUUUAAGAUGACCAUUCGCUCAUUUGAAGAAGAAAAACAAAAAACAAAAAAAAUAAUAAAAAUAAAACAAUUUUUACAAAGUAAUGGGAUUCAAAGAAAGGAAAAAAAGAUUUUUCUUUUUUGUCAAAAUAUCGAUCCAAUCAGAUUGGUAAAAACCCCCACACAAAUUAAAGAGGAAUAAUAAAAAUUGCAAAAAUAAAAAAAAACUUUUGCAAAUUUUUUUAUUUUUCCUUCUUUCUUUUAUAUCAUGUGAACUAAAACAGUCUUCUGUUAGGGGAUGGGGGCAAGGGGGAUACCUGAUGACAUUAACAAUUUAAUAACAUUAACAUUGUUGCCAAAGAGGUGGUCUCUUUGCUGAAAAUGGGUUUCAAGAAAAAUCUAUUUUUAUAAAAUAUAAAGAAUUUUUACAAGAGAAUCUGGAUUUGAGAAAAAAAUAUUUUGACUGGCUAAUUUAGGGGAAAUUGACAACUUUGUCGCGUUCAUACUGCACUGGUAACUUUUUAGAGAUCAAGAUGUGUGUUUUAAACUGGAUUCGUAGACUGUUUUUUGAAGGAUGGGCUAUAAACAG [HuD 3'UTR F1]”, the binding result is “binds”.

The values are drawn from paper PMC8410767.
